The results in this text go back to article doi:10.1101/2021.09.16.460643 (bioRxiv, 2021).

No constants are given. Whether binding was seen depends on the method and setting. Binding seen in cells or lysates may run through a third protein. Some entries that bind do so weakly or less than the wild type. Where a sequence is shown, tags or fusion partners need not be part of it.

The target in this assay is T1, full length ETR1-mCherry (Arabidopsis thaliana) (UniProt P49333).
T1 sequence: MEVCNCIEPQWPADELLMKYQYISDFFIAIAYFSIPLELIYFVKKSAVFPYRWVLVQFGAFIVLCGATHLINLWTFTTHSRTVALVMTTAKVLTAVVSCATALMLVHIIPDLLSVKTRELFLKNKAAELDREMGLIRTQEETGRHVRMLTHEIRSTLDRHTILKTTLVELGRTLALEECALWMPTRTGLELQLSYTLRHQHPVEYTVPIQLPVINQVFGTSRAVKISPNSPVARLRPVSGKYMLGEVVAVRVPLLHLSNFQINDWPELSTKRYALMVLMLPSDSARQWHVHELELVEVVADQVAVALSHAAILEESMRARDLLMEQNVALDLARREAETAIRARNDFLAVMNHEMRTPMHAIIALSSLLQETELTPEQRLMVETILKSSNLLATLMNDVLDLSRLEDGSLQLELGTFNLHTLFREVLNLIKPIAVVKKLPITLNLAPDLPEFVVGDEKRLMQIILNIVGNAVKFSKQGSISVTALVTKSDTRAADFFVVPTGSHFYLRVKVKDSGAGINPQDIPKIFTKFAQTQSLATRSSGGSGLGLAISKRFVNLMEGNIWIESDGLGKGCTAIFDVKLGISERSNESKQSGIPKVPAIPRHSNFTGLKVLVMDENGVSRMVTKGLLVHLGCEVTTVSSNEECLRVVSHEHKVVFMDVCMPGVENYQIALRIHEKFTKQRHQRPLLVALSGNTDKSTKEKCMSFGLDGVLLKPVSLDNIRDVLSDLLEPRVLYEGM
In words: FRET or BRET. Background: In BRET a luciferase serves as donor, and the signal depends on an acceptor being close.

B1: full length AHK5-GFP (protein, UniProt Q3S4A7 1-922)
chain: MVCEMETDQIEEMDVEVLSSMWPEDVGTEADKQFNVEKPAGDLDTLKEVTIETRTIADMTRLPNLLNSTHQGSSQLTNLVKQWEYMQDNAVRLLKEELKNLDRQREEAEAKELKIIEEYKFESNEPENVPVLDETSDLFRRFRQKKRDALVDSKKIEIYEEFDTVAYWKQKALSLEKMLEASTERERRLMEKLSESLKTMESQSAPVQELTQNLKRAEGFLHFILQNAPIVMGHQDKDLRYLFIYNKYPSLREQDILGKTDVEIFHGGGVKESEDFKREVLEKGKASKREITFTTDLFGSKTFLIYVEPVYNKAGEKIGINYMGMEVTDQVVKREKMAKLREDNAVRKAMESELNKTIHITEETMRAKQMLATMSHEIRSPLSGVVGMAEILSTTKLDKEQRQLLNVMISSGDLVLQLINDILDLSKVESGVMRLEATKFRPREVVKHVLQTAAASLKKSLTLEGNIADDVPIEVVGDVLRIRQILTNLISNAIKFTHEGNVGIKLQVISEPSFVRDNALNADTEEHEQNGLTETSVWICCDVWDTGIGIPENALPCLFKKYMQASADHARKYGGTGLGLAICKQLVELMGGQLTVTSRVSEGSTFTFILPYKVGRSDDYSDDQDEFSDMADQQSEPDDTAEGYFQFKPLLGSIYSNGGPGISNDFLPHKVMLTSPIKLINGFVADPSNNTGQSEMLQLENGGYMDESKLETSSGHCPESAHQYENGNGRCFSKESESCSSSQASSEGGTLEMESELTVSSHREEEKAETEVKETSKPKILLVEDNKINIMVAKSMMKQLGHTMDIANNGVEAITAINSSSYDLVLMDVCMPVLDGLKATRLIRSYEETGNWNAAIEAGVDISTSENEQVCMRPTNRLPIIAMTANTLAESSEECYANGMDSFISKPVTLQKLRECLQQYLH
With B1, the binding result is given as “binds”.
